Measurements: PubChem BioAssay AID2685 (National Center for Advancing Translational Sciences (NCATS), 2010)
This is one part of the list. The main result of the screen is listed elsewhere. These columns were measured beside it and carry no call. Compounds called inactive in the main read-out are mostly missing here. Words in brackets tell the shape of the fitted curve; partial curves, single points and poor fits give uncertain potencies.

Assay: qHTS Assay for Lipid Storage Modulators in Drosophila S3 Cells;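 on cell number change: cells counted by Cell Tracker Red CMTPX staining in the red channel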
Details: BODIPY lipid droplet fluorescence, 18-24 h; for cell number change: measured here: cell count max response, cells fed with added oleic acid
How it was run: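 Drosophila S3 cells loaded with oleic acid (400 uM, as added) and compounds at several concentrations; lipid droplets imaged by 488-nm laser-scanning cytometry, 500–530 nm intensity and object ratio to cell channel. Percent activity normalized to 20 uM Triacsin C.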

[1] = measured here: cell number channel AC50, cells fed with added oleic acid
[2] = measured here: lipid fluorescence (Fed channel) AC50, cells fed with added oleic acid

SMILES	cell number change [%]	AC50 [1]	AC50 [2]
COc1cccc(-c2nnn(CC(=O)Nc3cc(OC)c(NC(=O)c4ccco4)cc3OC)n2)c1	-75.1	29100 nM [falling, single point]	
O=c1nc(-c2ccccc2)c2ccccc2[nH]1	-1.31		6510 nM [falling, single point]
CN(C)S(=O)(=O)c1cc(NC(=O)CN2CCN(c3ccc(O)cc3)CC2)ccc1Cl	46.8	4.61 nM [rising, full curve, poor fit]	
O=c1[nH]c(CSc2nnc(-c3ccccc3)n2C2CCCCC2)nc2ccccc12	25.8	2310 nM [rising, full curve, poor fit]	3260 nM [rising, full curve]
CCC1(CC)NC(=S)N(Nc2ccccc2)C1=O	7.49		9200 nM [falling, partial curve]
O=C(CNc1cc(S(=O)(=O)N2CCCC2)ccc1OCC(F)(F)F)Nc1ccc(SC(F)F)cc1	31.8	5.17 nM [rising, full curve, poor fit]	29100 nM [falling, single point]
O=C(Cc1ccccc1)Nc1c(Cl)ccc2nsnc12	25.2		8200 nM [rising, partial curve]
Cc1ccnc(NC(=O)CCN2C(=O)c3ccccc3S2(=O)=O)n1		73.1 nM [rising, full curve, poor fit]	23100 nM [rising, partial curve, poor fit]
COc1ccc(CCNC(=O)CNS(=O)(=O)c2ccc(N(C)C)c([N+](=O)[O-])c2)cc1OC	-30.6	231 nM [falling, full curve, poor fit]	164 nM [falling, single point]
COc1ccc(CCN(C)C(=O)c2ccc(COc3ccccc3)o2)cc1OC	-33.4	23100 nM [falling, single point]	
CNC(=O)c1c(NC(=O)c2nc3ccccc3s2)sc2c1CCC2	-2.24	651 nM [rising, full curve]	291 nM [rising, full curve]
Cc1ccc(C)n1NC(=O)c1ccccc1[N+](=O)[O-]	30.9	1300 nM [rising, partial curve, poor fit]	25900 nM [rising, single point]
CCCc1cc(=O)[nH]c2nnc(SCC(=O)Nc3nnc(SCC)s3)n12	-66.3	29100 nM [falling, single point]	
Cc1cc(S(=O)(=O)N2CCN(CC(=O)NC(C)(C#N)C3CC3)CC2)ccc1Br (stereo not given)	86.5		
CCS(=O)(=O)NC(C)C(c1cccs1)N1CCN(C)CC1 (stereo not given)	-71.7	29100 nM [falling, single point]	29100 nM [falling, single point]
Cc1ccc(CN2C(=O)N/C(=C/c3cc(C)n(-c4ccccn4)c3C)C2=O)cc1	43.5	29100 nM [rising, single point]	4.61 nM [falling, full curve, poor fit]

Fetched by compound from the entries so far, 2 records:
SMILES	cell number change [%]	AC50 [1]	AC50 [2]
O=C(CNc1cc(S(=O)(=O)N2CCCC2)ccc1OCC(F)(F)F)Nc1ccc(SC(F)F)cc1	31.8	5.17 nM [rising, full curve, poor fit]	29100 nM [falling, single point]
O=c1nc(-c2ccccc2)c2ccccc2[nH]1	-1.31		6510 nM [falling, single point]

(next part)

SMILES	cell number change [%]	AC50 [1]	AC50 [2]
COc1ccc(CC(=O)N/N=C(\C)c2cccs2)cc1	-6.61		580 nM [rising, single point]
Cn1c(=O)n(C)c2cc(C(=O)Nc3ccc4c(c3)OCO4)ccc21		164 nM [rising, full curve, poor fit]	651 nM [rising, partial curve]
COc1cc(/C=N/Nc2nc(Nc3ccccc3)nc(-n3nc(C)cc3C)n2)cc(OC)c1OC	-22		8200 nM [falling, partial curve, poor fit]
O=[N+]([O-])c1ccc(-[n+]2nc(-c3ccccc3)nn2-c2ccccc2)cc1	-43.4	411 nM [falling, full curve, poor fit]	231 nM [falling, full curve]
NC(=O)C1(N2CCCCC2)CCN(S(=O)(=O)c2ccc(Cl)s2)CC1			29100 nM [falling, single point]
O=C(CN1C(=O)COc2ccccc21)NCCN1CCOCC1	21.8		29100 nM [falling, single point]
CCOc1ccc(S(=O)(=O)N(C)c2ccc(OCC(=O)OCc3c(C)noc3C)cc2)cc1	-35.7	20600 nM [falling, partial curve]	16400 nM [falling, partial curve]
Cc1cc(NC(=S)NC(=O)/C=C/c2ccc(S(=O)(=O)N3CCOCC3)cc2)ccc1Br	39.1	461 nM [falling, single point]	29100 nM [rising, partial curve, poor fit]
Cc1ccc(Nc2nc(=O)c3cccnc3s2)cc1	-34.2	18400 nM [falling, single point]	326 nM [rising, partial curve]
C=CCn1c(=O)c2ccccc2n2c(SCc3nnc(-c4ccccc4Br)o3)nnc12	-0.2		1300 nM [rising, partial curve]
COC(=O)c1c(C)oc2ccc(N(C(C)=O)S(=O)(=O)c3ccccc3)cc12	-38.5	1640 nM [falling, full curve, poor fit]	5170 nM [rising, single point]
CCC(=O)Nc1c(C)ccc2nsnc12	-17.2		206 nM [falling, partial curve, poor fit]
Cc1cc(C(=O)N/N=C/c2c(C)n(C)c3ccccc23)n[nH]1	30.5	4.61 nM [rising, full curve, poor fit]	2310 nM [rising, full curve]
C=CCn1c(SCC(=O)NC(=O)NCCC)nnc1C1CCCCC1	2.08		461 nM [falling, partial curve, poor fit]
COCCCNCCOCCOc1ccccc1-c1ccccc1		1030 nM [falling, partial curve, poor fit]	
O=c1cc(-c2ccccc2Cl)oc2c(NS(=O)(=O)c3cc(Cl)cc(Cl)c3O)ccc(O)c12	-53.1	18400 nM [falling, single point]	18400 nM [falling, single point]
